Counter-ions that a name gives are not always drawn. The list shows a part of the results. No stated cut-off is given here; in the data, active = 1.25 or more and inactive = the rest. Single values are uncertain, as repeats are few or missing.
system: Kcc2-LUC knock-in mouse primary cortical neurons (Kcc2 promoter reporter); experiment: Kcc2 promoter-driven luciferase activity relative to vehicle control (fold of vehicle (ratio)); higher = stronger Kcc2 promoter activation (Kcc2 expression enhancer); details: 100 nM; 48 h

Compound | Kcc2 promoter-driven luciferase activity
COc1ccc2c(c1O)-c1c(OC)c(OC)cc3c1[C@H](C2)N(C)CC3 [Luteanine] | inactive: 1.23
CC(=O)C(=O)NC1/C=C(C)\C=C/C(O)C/C=C(C)\C=C/C(O)CC2OC(=O)C1(C)C(=O)C2C (configuration not stated) [Lankacidin C] | inactive: 1.08
N#Cc1cn([C@@H]2O[C@H](CO)[C@@H](O)[C@H]2O)c2ncnc(N)c12 [Naritheracin] | active: 5.53
COc1cccc2c1cc([N+](=O)[O-])c1c(C(=O)O)cc3c(c12)OCO3 [Aristolochic Acid] | inactive: 0.68
C[C@]12CC[C@H](O)C[C@H]1CC[C@@H]1[C@@H]2CC[C@]2(C)[C@@H](C3=CC(=O)OC3)CC[C@]12O [Digitoxigenin] | inactive: 0.38
CC(Cl)[C@@]1(O)C[C@@H](C)[C@@](C)(O)C(=O)OCC2=CCN3CC[C@@H](OC1=O)[C@@H]23 (some centres not stated) [Jaconine Hydrochloride] | inactive: 1.01
COc1cc2c(c(OC)c1OC)-c1ccc(OC)c(=O)cc1[C@@H](NC(C)=O)CC2 [Colchicine] | active: 1.57
CC(=O)OC1C(O)C(C)OC(OC2C(OC(=O)C3CCC4C(C3)OC3(CC(OC(=O)/C=C/c5ccccc5)C(C)CO3)C43CO3)OC(C)C(O)C2OC(C)=O)C1O (configuration not stated) | active: 1.25
CO[C@@H](C)[C@](O)(C(=O)OCC1=CCN2CC[C@H](O)[C@@H]12)C(C)(C)O [Europine] | inactive: 0.61
COc1ccc2c(c1OC)CN1CCc3cc4c(cc3[C@@H]1C2)OCO4 [Canadine] | inactive: 0.5
COC(=O)C1=C(C(=O)OC)SC2(S1)C(C(=O)OC)=C(C(=O)OC)Sc1c2ssc1=O | inactive: 0.83
C[C@@H]1O[C@@H](O[C@@H]2C=C3CC[C@@H]4[C@H](CC[C@]5(C)[C@@H](c6ccc(=O)oc6)CC[C@]45O)[C@@]3(C)CC2)[C@H](O)[C@H](O)[C@H]1O [Proscillaridin A] | inactive: 0.824
CCCC/C=C/C=C/C=C/CCCCCCCC(=O)OCC(COC(=O)CCCCCCC/C=C/C1C=CC(CCCC)C(C(=O)O)C1C(=O)O)OC(=O)CCCCCCC/C=C/C=C/C=C/CCCC.OCCNCO (configuration not stated) | inactive: 1.14
C=C(C)C(=O)OC1CCC2(C)C(CCC3C2CCC2(C)C(c4ccc(=O)oc4)CC4OC432)C1 (configuration not stated) [Resibufogenin derivative] | inactive: 0.999
CC1CCC2(O)C3(C)CC4(O)OC2(C1O)C1(O)C3(O)C(OC(=O)c2ccc[nH]2)C(O)(C(C)C)C41C (configuration not stated) [Ryanodine] | inactive: 1.02
CC[C@H](C)c1occ2c(O)c(C(=O)O)c(=O)cc-2c1C [Ascochitine] | inactive: 1.16
C/C=C1/CN2C3CC45c6ccccc6N(C)C4C2CC1C3C5O (configuration not stated) [Tetraphyllicine] | active: 1.29
C[N+](C)(C)CC1CCCC1=O (configuration not stated) [trimethyl-[(2-oxocyclopentyl)methyl]azanium;iodide] | inactive: 1.17
COc1cccc2c1C(=O)c1c(O)c3c(c(O)c1C2=O)C[C@@](O)(C(C)=O)C[C@@H]3O[C@H]1C[C@H](N(Cc2ccccc2)Cc2ccccc2)[C@H](O)[C@H](C)O1 [N,N-Dibenzyldaunorubicin hydrochloride] | inactive: 1.1
CCCCCn1cc2c3c(cccc31)C1C=C(C)CN(C)[C@@H]1C2.Cc1ccc(C(=O)OC(C(=O)O)C(OC(=O)c2ccc(C)cc2)C(=O)O)cc1 (configuration not stated) | inactive: 1.02
CCCCCC1=C/C(=C/c2[nH]c(-c3ccc[nH]3)cc2OC)N=C1C [Prodigiosin] | inactive: 1.01
CC(=O)c1c(O)c(C)c(O)c(Cc2c(O)c3c(c(C(=O)/C=C/c4ccccc4)c2O)OC(C)(C)C=C3)c1O [Rottlerin] | inactive: 0.57
CC(=O)[O][Pb]([O]C(C)=O)([c]1ccccc1)[c]1ccccc1 [Diphenyllead diacetate] | inactive: 0.71
CO[C@H]1Nc2c(ccc(C)c2O)C(=O)N2C=C(/C=C/C(N)=O)C[C@@H]12 [Anthramycin Methyl Ether] | inactive: 0.675
CC(C)OP(=O)(OC(C)C)C(N(C)C)P(=O)(OC(C)C)OC(C)C.[Cl][Sn]([Cl])([Cl])[c]1ccccc1 | inactive: 0.98
NCCCNCCSP(=O)(O)O [Amifostine] | inactive: 1.19
C[C@@H]1CC[C@@]2(OC1)O[C@H]1CC3[C@@H]4CC=C5C[C@@H](O[C@@H]6O[C@H](CO)[C@@H](O[C@@H]7O[C@@H](C)[C@H](O[C@@H]8O[C@@H](C)[C@H](O)[C@@H](O)[C@@H]8O)[C@@H](O)[C@H]7O)[C@H](O)[C@H]6O[C@@H]6O[C@@H](C)C(O)[C@@H](O)[C@H]6O)CC[C@]5(C)[C@H]4CC[C@]3(C)[C@H]1[C@@H]2C (some centres not stated) [Polyphyllin B, DIOSGENIN TETRAGLYCOSIDE] | inactive: 1.04

3 structures from above, ordered by molecular weight, ascending.
Compound | Kcc2 promoter-driven luciferase activity
CO[C@H]1Nc2c(ccc(C)c2O)C(=O)N2C=C(/C=C/C(N)=O)C[C@@H]12 [Anthramycin Methyl Ether] | inactive: 0.675
COc1ccc2c(c1OC)CN1CCc3cc4c(cc3[C@@H]1C2)OCO4 [Canadine] | inactive: 0.5
C[C@@H]1O[C@@H](O[C@@H]2C=C3CC[C@@H]4[C@H](CC[C@]5(C)[C@@H](c6ccc(=O)oc6)CC[C@]45O)[C@@]3(C)CC2)[C@H](O)[C@H](O)[C@H]1O [Proscillaridin A] | inactive: 0.824

Reference: the supplement of paper PMC8551327
